The source of these data is PubChem BioAssay AID2685 (National Center for Advancing Translational Sciences (NCATS), 2010).

The assay in a line: qHTS Assay for Lipid Storage Modulators in Drosophila S3 Cells.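 As to cell number change: cells counted by Cell Tracker Red CMTPX staining in the red channel.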 The conditions noted are these: BODIPY lipid droplet fluorescence, 18-24 h; for cell number change: measured here: cell count max response, cells fed with added oleic acid. Summed up: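 Drosophila S3 cells got compounds at several concentrations plus oleic acid (400 uM solution). Laser-scanning cytometry with 488 nm excitation read lipid droplets at 500-530 nm and cells at 575-640 nm. Percent activity was relative to 20 uM Triacsin C.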

Setting [1] is: measured here: cell number channel AC50, cells fed with added oleic acid.
[2] abbreviates: measured here: lipid fluorescence (Fed channel) AC50, cells fed with added oleic acid.

This is one part of the list. Further columns of the screen follow, without active or inactive calls. The list favours compounds with an active or inconclusive main result. Words in brackets tell the shape of the fitted curve; partial curves, single points and poor fits give uncertain potencies.

For `CN1Cc2c(N3CCOCC3)nc3sc(C(=O)c4ccc(Br)cc4)c(N)c3c2CC1(C)C`, the cell number change is -49.2%. Moreover, the AC50 under setting [1] is 20.6 µM [falling, single point]. The AC50 under setting [2] was 29.1 µM [falling, single point].

Consider `Cc1ccc(C(=O)NC2CCCCC2)cc1S(=O)(=O)N1CCCC1`, for which the cell number change is -29.2%. Moreover, the AC50 under setting [2] was 6.51 µM [falling, single point].

Take `CN1/C(=C\C(=O)C[n+]2cccc(Br)c2)C(C)(C)c2ccccc21`: the cell number change was -2.19%. For the same compound, under setting [2], the AC50 is 29.1 µM [falling, single point].

On to `CC1=C(C(=O)Nc2ccc(Cl)cc2)C(c2ccncc2)C(C#N)=C(SCC(N)=O)N1` (stereo not given), for which the AC50 is, setting by setting: under setting [1], 0.164 µM [rising, full curve, poor fit]; under setting [2], 0.164 µM [rising, full curve, poor fit].

`CCC(c1nnnn1CCOC)N(Cc1cc2c(C)cc(C)cc2[nH]c1=O)CC1CCCO1` (stereo not given): the cell number change is -29.9%. Under setting [2], the half-maximal activity concentration (AC50) was 2.06 µM [falling, partial curve].

On to `COc1ccccc1N=C(C)C1=C(O)CC(c2ccccc2)CC1=O` (stereo not given), for which the cell number change came to 8.28%. The half-maximal activity concentration (AC50) under setting [2] is 29.1 µM [falling, single point].

`COC(=O)c1ccc(N=Nc2ccccc2)cc1`: the cell number change was found to be 14%.

On to `CCCCn1c(N)c(N(CCC(C)C)C(=O)C2=NN(c3ccccc3)C(=O)CC2)c(=O)[nH]c1=O`, for which the cell number change is -7.27%. Further, the half-maximal activity concentration (AC50) under setting [2] is 0.411 µM [rising, partial curve, poor fit].

Turning to `CCCCc1c(C)nn(-c2nnc3c4ccccc4n(C)c3n2)c1C`, the cell number change worked out at 39.4%. The concentration at half-maximal activity (AC50) under setting [1] is 18.4 µM [rising, single point].

On to `O=C(O)Cc1c(C(=O)O)[nH]c2ccc(C(=O)O)cc12`, for which the cell number change came out at 0.367%. Moreover, the half-maximal activity concentration (AC50) under setting [2] is 0.291 µM [falling, full curve, poor fit].

As for `CCOC(=O)N1CCN(C(=O)CN(c2cc(Cl)ccc2OC)S(=O)(=O)c2ccccc2)CC1`, the cell number change is -25.6%. For the same compound, under setting [2], the concentration at half-maximal activity (AC50) is 29.1 µM [falling, single point].

`O=C(Nc1cccc(S(=O)(=O)N2CCOCC2)c1)C1CCN(S(=O)(=O)c2ccccc2)CC1`: the cell number change was 2.36%. Moreover, under setting [2], the half-maximal activity concentration (AC50) is 0.517 µM [falling, full curve, poor fit].

As to `N#CC1=C2SCN(Cc3ccco3)CN2C(=O)CC1c1c(F)cccc1Cl` (stereo not given), the cell number change is -5.45%. Moreover, the concentration at half-maximal activity (AC50) under setting [2] was 0.116 µM [falling, full curve, poor fit].

Regarding `CCCOc1ccc(/C=C/C(=O)Nc2ccc([N+](=O)[O-])cc2)cc1`, the cell number change came out at 19.2%. The half-maximal activity concentration (AC50) under setting [2] was 0.0731 µM [rising, full curve, poor fit].

Turning to `CCc1nnc(NC(=O)c2cccnc2SC)s1`, the cell number change was 66.3%. In addition, the half-maximal activity concentration (AC50) under setting [1] was 18.4 µM [rising, single point].

As for `CCCC(O)(c1ccccc1)C(CN1CCOCC1)c1ccccc1` (stereo not given), the cell number change is -43.7%. Also, the AC50 under setting [1] was 16.4 µM [falling, single point]. For the same compound, under setting [2], the AC50 is 18.4 µM [falling, single point].

Regarding `Cc1occc1C(=O)NNC(=O)c1ccc(Br)o1`, the cell number change is -15.4%. The half-maximal activity concentration (AC50) under setting [2] is 2.59 µM [falling, full curve, poor fit].

Regarding `Cc1cccc(C)c1NC(=O)CNC(=O)c1ccccc1OCc1ccccc1`, the cell number change worked out at 7.23%. In addition, the concentration at half-maximal activity (AC50) under setting [1] is 1.03 µM [rising, partial curve].

As to `Nc1ccccc1C(=O)N1CCC(O)(c2ccc(Cl)cc2)CC1`, the cell number change worked out at 8.77%.

Take `Cc1cccc(N2CCN(S(=O)(=O)c3c(C)[nH]c(=O)[nH]c3=O)CC2)c1C`: the cell number change is -4.99%.

Take `COCCn1c(C)cc(C(=O)CSc2nc3ccccc3s2)c1C`: the cell number change worked out at 1.38%. Besides, the AC50 under setting [1] was 0.259 µM [rising, partial curve]. Under setting [2], the half-maximal activity concentration (AC50) was 0.411 µM [rising, partial curve].

For the compound `COc1ccc(C(=O)c2sc3nc(C)cc(-c4cccs4)c3c2N)cc1`, the cell number change was -1.75%. Also, the half-maximal activity concentration (AC50) under setting [2] was 20.6 µM [rising, single point].

With `O=C(CCc1nc2ccccc2c(=O)[nH]1)Nc1cc(Cl)ccc1N1CCCCC1`, the cell number change turned out to be 4.38%. Further, the AC50 under setting [1] was 6.51 µM [rising, partial curve]. Under setting [2], the AC50 is 0.103 µM [rising, full curve, poor fit].

For `Cc1cc(C)c(OCC(=O)Nc2cccc(O)c2)cc1C`, the cell number change is -17.5%.

On to `CCCCC/C=C/C1=CC(=O)C[C@H](c2ccc3c(c2)OCO3)C1`, for which the cell number change was -15.8%. The AC50 under setting [1] was 1.16 µM [falling, single point]. The concentration at half-maximal activity (AC50) under setting [2] was 16.4 µM [falling, single point].

For `COCCCN1C(=O)/C(=C\c2cccs2)C(C(=O)OC)=C1C`, the cell number change was found to be 10.8%.

Regarding `O=C1CN(C(=O)c2ccccc2)C(c2ccc(F)cc2)c2cc(Br)ccc2N1` (stereo not given), the cell number change is -17.7%. Moreover, the half-maximal activity concentration (AC50) under setting [2] was 6.51 µM [falling, single point].

For `COc1ccc(C(=O)NCCc2c[nH]c3ccccc23)cc1`, the cell number change was -16.5%. Further, the AC50 under setting [2] is 29.1 µM [rising, single point].

For the compound `CCOC(=O)N1CCC(n2c(SCC(=O)c3ccccc3)nc3ccsc3c2=O)CC1`, the cell number change is -2.3%. For the same compound, under setting [1], the concentration at half-maximal activity (AC50) is 0.184 µM [rising, full curve, poor fit]. Also, the AC50 under setting [2] was 5.8 µM [rising, partial curve, poor fit].

For the compound `Cc1cc(Cl)c(S(=O)(=O)N2CCCC2)cc1OCC(=O)NC1CCCCC1`, the AC50 under setting [1] is 6.51 µM [rising, single point].

As to `CC(=O)OC(C(=O)NC1CCCCC1)c1ccc(Cl)c(Cl)c1` (stereo not given), the cell number change was found to be 0.332%. Further, the concentration at half-maximal activity (AC50) under setting [2] was 0.731 µM [falling, single point].

Take `COc1ccc(N2CCN(C(=O)CCN3C(=O)C4C5C=CC(C5)C4C3=O)CC2)cc1` (stereo not given): the cell number change is -23%. Under setting [2], the AC50 is 29.1 µM [falling, single point].

For the compound `COc1ccc(/C=N/n2cnc3c([nH]c4ccc(F)cc43)c2=O)cc1CSc1ccccn1`, the cell number change is 32.1%. Moreover, the AC50 under setting [1] is 0.461 µM [rising, full curve, poor fit]. Also, the concentration at half-maximal activity (AC50) under setting [2] was 29.1 µM [rising, partial curve, poor fit].

For `Cc1ccc(-c2cnco2)cc1`, the cell number change amounted to 13.5%. For the same compound, the AC50 under setting [2] is 6.51 µM [falling, single point].

Take `O=S(=O)(c1ccc(F)cc1)c1nc(-c2ccccc2F)oc1N1CCCCC1`: the cell number change was -13%. For the same compound, the concentration at half-maximal activity (AC50) under setting [2] was 1.16 µM [rising, partial curve].

Consider `CC12COC3(C(=O)Nc4ccccc4)CC1CCC32C` (stereo not given), for which the cell number change was -7.76%. Further, the AC50 under setting [2] is 3.66 µM [falling, single point].

`O=C(C1=CC=CN2CCS(=O)(=O)N=C12)N1CCN(c2cccc(Cl)c2)CC1`: the cell number change is -11.6%. Also, the concentration at half-maximal activity (AC50) under setting [2] was 0.116 µM [falling, full curve, poor fit].
